Data as given in patent US7087590B2, “19-norbufalin derivatives, their preparation and pharmaceutical compositions containing them” (Yissum Research Development Company of the Hebrew …, priority 2000, dated 2006).
Some of these results come from one statement about several compounds together. At least one compound was matched to its structure with a doubt left.

The compounds below were run on Na^+,K^+-ATPase (assay: Na+,K+-ATPase activity in rat brain microsomal fraction (colorimetric inorganic phosphate)).
Format: biochemical
Description: Total and Na^+ and K^+ dependent ATPase activities were measured in rat brain microsomal fraction. Enzyme activity was measured by the colorimetric determination of inorganic phosphate after the incubation of microsomes (30 μg protein/reaction) at 37° C. in a solution (final volume 500 μl) containing (final concentrations) Tris-HCl ([…], pH 7.4), NaCl (100 mM), KCl (10 mM), MgCl2 (4 mM) and ATP (2 mM, Tris, vanadium free). After 10 minutes preincubation, the ATP was added to initiate the reaction. Reactions were terminated by the addition of 100 μl 5% trichloroacetic acid and the precipitate was removed by centrifugation. Mg^++-ATPase activity was determined by the addition of ouabain (1 mM) to the assay mixture.

| SMILES | Inhibition of Na^+,K^+-ATPase activity (in words) |
| --- | --- |
| C[C@]12CC[C@H]3[C@@H](CC[C@@H]4CC(OCc5ccccc5)CC[C@@H]43)[C@@H]1[C@H](O)C[C@@H]2c1coc(C=O)c1 (stereo partly drawn) [Compound 13-1, 4-(′3-benzyloxy-15′β-hydroxy-5β-estran-17′β-yl)furan-2-carbaldehyde] | inhibitors of Na^+,K^+-ATPase activity |
| C[C@]12CC[C@@H]3[C@H]4CCC(OCc5ccccc5)C[C@H]4CC[C@H]3C1=CC[C@@H]2C(=CC(O)C1OCCO1)CO (stereo partly drawn) [Compound 16, 4-(3′-benzyloxy-5′β-estr-14 ′-en-17′β-yl)-2,5-dihydroxy-3-pentenal ethylene acetal] | inhibitors of Na^+,K^+-ATPase activity |
| C[C@]12CC[C@@H]3[C@H]4CCC(O)C[C@H]4CC[C@H]3[C@]1(O)CC[C@@H]2c1ccc(=O)oc1 (stereo partly drawn) [Compound 20, 5-(3′-hydroxy-5′β-estran-14′hydroxy-17′β-yl)-2H-pyran-2-one] | inhibitors of Na^+,K^+-ATPase activity |
| C[C@]12CC[C@@H]3[C@H]4CCC(O)C[C@H]4CC[C@H]3C1=CC[C@@H]2c1ccc(=O)oc1 (stereo partly drawn) [Compound 19, 5-(3′hydroxy-5′β-estr-14′-en-17′β-yl)-2H-pyran-2-one] | inhibitors of Na^+,K^+-ATPase activity |
| C[C@]12CC[C@@H]3[C@H]4CCC(OCc5ccccc5)C[C@H]4CC[C@H]3C1=CC[C@@H]2C1=CC(O)C(O)OC1 (stereo partly drawn) [Compound 17, 5-(3′-benzyloxy-5′β-estr-14′-en-17′β-yl)-3,6-dihydro-2H-pyran-2,3-diol] | inhibitors of Na^+,K^+-ATPase activity |
| C[C@]12CC[C@@H]3[C@H]4CCC(OCc5ccccc5)C[C@H]4CC[C@H]3C1=CC[C@@H]2c1ccc(=O)oc1 (stereo partly drawn) [Compound 18, 5-(3′-benzyloxy-5′β-estr-14′-en-17′β-yl)-2H-pyran-2-one] | inhibitors of Na^+,K^+-ATPase activity |
| C[C@]12CC[C@H]3[C@@H](CC[C@@H]4CC(OCc5ccccc5)CC[C@@H]43)[C@@H]1[C@H](O)C[C@@H]2c1coc(C2OCCO2)c1 (stereo partly drawn) [Compound 13, 4-(′3-benzyloxy-15′β-hydroxy-5β-estran-17′β-yl)furan-2-carbaldehyde ethylene acetal] | inhibitors of Na^+,K^+-ATPase activity |
| C[C@]12CC[C@@H]3[C@H]4CCC(OCc5ccccc5)C[C@H]4CC[C@H]3C1=CC[C@@H]2c1coc(C2OCCO2)c1 (stereo partly drawn) [Compound 14, 4-(3′-benzyloxy-5′β-estr-14′-en-17′β-yl)furan-2-carbaldehyde ethylene acetal] | inhibitors of Na^+,K^+-ATPase activity |
